Measured values reported in patent publication US8940271B2, “Transmucosal administration of drug compositions for treating and preventing disorders in animals” (Abbott Laboratories, priority 2005, dated 2015).

Conditions: dogs, TMOM, average dose 2.7 mg/kg

## CN(C)CCOC(c1ccccc1)c1ccccc1 [diphenhydramine]
  plasma concentrations obtained: Significant concentrations
